Laboratory results published in PubChem BioAssay AID504582 (Broad Institute, 2011).
About 2,300 (0.68%) of roughly 340,000 compounds were called active. Inconclusive results, whose numbers are uncertain, are shown with a selection of clear calls. No stated cut-off is given here; in the data, active means growth rescue above about 28% (passing the limit was not always enough); inconclusive means no clear call, values can overlap the other calls.

Test: rescue of yeast from PfHsp40 toxicity, primary screen, S. cerevisiae, ATP luminescence (AID 504582);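 further: yeast W303a lacking pdr1 and pdr3 grown in galactose medium; growth measured after three days at 30 °C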
Settings: S. cerevisiae expressing PfHsp40, growth rescue, at 12.5 µM, active compounds read high

Structure (SMILES)	growth rescue
Cc1cccc(C(=O)NNC(=S)NC(=O)c2ccccc2)c1	active: 127%
COc1cccc(NC(=S)N2CCN(C/C=C/c3ccccc3)CC2)c1	inactive: -0.357%
CC(C)(C)c1ccc(CNC(=O)C2CCCN2C(=O)Nc2ccccc2)cc1 (stereo unspecified)	inconclusive: 46%
COc1ccc2c(=O)c(-c3cnn(-c4ccccc4)c3)c(C)oc2c1	inconclusive: 51.8%
COc1ccc(-n2sc3ccc(F)cc3c2=O)cc1	active: 125%
COc1ccc(-c2cc(C(=O)N3CCN(c4ncccn4)CC3)c3ccccc3n2)c(OC)c1	inconclusive: 47.1%
O=C(Nc1nnc(-c2cccs2)o1)c1cccc(Oc2ccccc2)c1	active: 500%
COc1cc(/C=C/C(O)=C/C(=O)/C=C/c2ccc(O)cc2)ccc1O	inconclusive: 26%
O=C(O)c1cnn(-c2nc(-c3ccc(Br)cc3)cs2)c1C(F)(F)F	inconclusive: 68.6%
Cc1ccc(CNC(=O)COC(=O)[C@@H]2CC(O)CN2S(=O)(=O)c2ccc3c(c2)OCCO3)cc1 (stereo partly specified)	inconclusive: 43.1%
O=C(Nc1ccccc1)c1ccccc1OCC(O)CN1C(=O)c2ccccc2S1(=O)=O (stereo unspecified)	inconclusive: 29%
CCc1nc(SCC(=O)NCCc2ccccc2)n[nH]1	inactive: -1.16%
CCC(=O)NC(c1ccccc1OC)c1ccc2cccnc2c1O (stereo unspecified)	inconclusive: 193%
Cc1ccc(CN(Cc2cccnc2)C(=S)Nc2cc(Cl)ccc2C)cc1	inconclusive: 29%
CC(C)(C)NC(=O)CN(C(=O)CCN1CCCc2ccccc21)C(C)(C)C	inconclusive: 30.6%
COc1cc(/C=C/C(=O)c2ccccc2O)cc(OC)c1OC	inconclusive: 74.8%
CCCCC(=O)NC(c1ccc(N(CC)CC)cc1)c1ccc2cccnc2c1O (stereo unspecified)	active: 129%
O=C(NNC(=O)c1ccccc1O)c1ccccc1O	active: 68%

Structure (SMILES)	growth rescue
O=C(NNC(=O)c1cnccn1)c1cccc([N+](=O)[O-])c1	inconclusive: 45.8%
CCCN(CC#CC(O)(c1ccccc1)c1cccnc1)CCC (stereo unspecified)	inconclusive: 36.4%
Cc1oc(-c2ccccc2F)nc1CS(=O)CC(=O)NCc1ccccn1 (stereo unspecified)	inconclusive: 58.4%
CC[C@@H](C)[C@H](NC(=O)OC(C)(C)C)c1nnc(S(=O)(=O)Cc2cc(C)ccc2C)o1	inconclusive: 69.2%
COc1ccc(CCC(=O)NCc2ccco2)cc1	inactive: -1.35%
C=CCSC1=N/C(=C\C=C\c2ccco2)C(=O)S1	inconclusive: 31.4%
O=C(Nc1ccc(F)cc1)c1ccc(-n2ccnc2)nc1	inactive: -0.56%
CCCCCCCNC(=O)C1(CC2CC(c3ccc(Cl)cc3)=NO2)CCN(C(=O)c2cc(OCC)c(OCC)c(OCC)c2)CC1 (stereo unspecified)	inconclusive: 27.3%
NC1=NC[C@H](c2ccccc2)N1CCc1cc(C(F)(F)F)cc(C(F)(F)F)c1	inconclusive: 55%
O=c1c2cc(F)ccc2sn1-c1ccccc1	inconclusive: 107%
CCc1nc2nc(C)c(NS(=O)(=O)c3ccc(C)c(C)c3)c(=O)n2[nH]1	inconclusive: 38.9%
COc1ccc(N2C(=O)CSC2c2cccc(F)c2)cc1 (stereo unspecified)	inactive: -1.16%
O=C1c2ccccc2NC(c2ccc(-c3ccccc3F)o2)N1O (stereo unspecified)	active: 120%
COC(=O)c1ccccc1NC(=O)COC(=O)c1ccccc1N=Nc1ccc(N(C)C)cc1	active: 73.4%
COC(=O)c1cc2ccsc2n1Cc1nc(-c2ccc(OC)cc2)oc1C	inconclusive: 34.2%
CSCC(=O)Nc1ccc(F)c(Cl)c1	inconclusive: 28%
CSc1ccccc1NC(=O)c1cc(-c2cccs2)on1	inactive: 0.145%
O=C(c1ccc(-c2ccccc2)c(F)c1)C1CCCN(C(=O)c2cncs2)C1 (stereo unspecified)	active: 412%
CC(C)C(=O)NC(c1cccc([N+](=O)[O-])c1)c1ccc2cccnc2c1O (stereo unspecified)	active: 228%

Shown with each value named: entries from further up
CCCCCCCNC(=O)C1(CC2CC(c3ccc(Cl)cc3)=NO2)CCN(C(=O)c2cc(OCC)c(OCC)c(OCC)c2)CC1 (stereo unspecified)
  growth rescue: inconclusive: 27.3%
NC1=NC[C@H](c2ccccc2)N1CCc1cc(C(F)(F)F)cc(C(F)(F)F)c1
  growth rescue: inconclusive: 55%
O=c1c2cc(F)ccc2sn1-c1ccccc1
  growth rescue: inconclusive: 107%
CCc1nc2nc(C)c(NS(=O)(=O)c3ccc(C)c(C)c3)c(=O)n2[nH]1
  growth rescue: inconclusive: 38.9%

Next structures.

Structure (SMILES)	growth rescue
CC[n+]1c(/C=C/N(C)c2ccccc2)n(-c2ccccc2)c2ccc(-c3nc4ccccc4s3)cc21	inconclusive: 37.3%
CC(NC(=O)C12CC3CC(CC(C3)C1)C2)C(=O)N/N=C/C1=C(N2CCOCC2)C(=C\c2ccccc2)/CC1 (stereo unspecified)	inconclusive: 26.6%
COc1ccc(-c2ccc3c(c2)C2CC3CCN2Cc2ccc(OC(F)(F)F)cc2)cc1 (stereo unspecified)	inactive: -1.55%
Cc1ccc(S(=O)(=O)N(C)c2ccc(C(=O)NCc3cccnc3)cc2)cc1	inactive: 1.78%
Nc1c(Cl)ncnc1N/N=C/c1ccnc2ccccc12	inactive: -0.119%
O=C(COc1ccccc1Cl)NC(=S)N1CCc2ccccc21	inconclusive: 49.8%
S=C(Nc1ccccn1)c1ccccn1	inactive: -0.599%
CN(C)CCSc1nnc2[nH]c3ccccc3c2n1	inactive: -0.806%
CCNC(=O)C12CCC(C)(C(=O)O1)C2(C)C (stereo unspecified)	inconclusive: 69.2%
CCOC(=O)c1ccc(NC(=O)/C=C/c2cccs2)cc1	active: 164%
COc1ccc(-c2nnc(SC(C)C(=O)Nc3c(C)n(C)n(-c4ccccc4)c3=O)o2)cc1 (stereo unspecified)	inconclusive: 25.6%
Cc1ccc(C)c(NC(=S)NNC(=O)c2csc3c2CCC(C)C3)c1 (stereo unspecified)	active: 62.2%
CCCc1cc(=O)oc2cc(O[C@@H]3O[C@H](CO)[C@@H](O)[C@H](O)[C@H]3O)ccc12	inconclusive: 35.4%
CC1CCc2c(C(=O)Nc3ccccn3)csc2C1 (stereo unspecified)	active: 265%
O=c1[nH]cc(I)cc1I	inconclusive: 29.2%
COC(=O)C1=NNC2(c3ccc(Cl)cc3)C(=O)N(c3ccc(Cl)cc3)C(=O)C12 (stereo unspecified)	active: 45.2%
C#CCOCCOCCOCCNc1nc(N2CCN(C(=O)CCCCCCCCCCNC(=O)[C@@H](CCSC)n3cc(CCO)nn3)CC2)nc(N2CCN(C(=O)CCCCCCCCCCNC(=O)[C@H]([C@@H](C)CC)n3cc(CCCCN=C(N)N)nn3)CC2)n1	inconclusive: 27.6%
CCc1sc(C(=O)Nc2nc(-c3ccccn3)cs2)cc1C	active: 441%
